Test results reported in the supplement of paper PMC12067093, “Discovery and optimisation of a covalent ligand for TRIM25 and its application to targeted protein ubiquitination” (Chemical Science, 2025).
Some of the results follow.

The chains behind the UniProt entries cited, without tags or fusion partners. Where a name states a change or a piece, a line headed by the entry shows the natural chain unless it says otherwise.
UniProt P61081: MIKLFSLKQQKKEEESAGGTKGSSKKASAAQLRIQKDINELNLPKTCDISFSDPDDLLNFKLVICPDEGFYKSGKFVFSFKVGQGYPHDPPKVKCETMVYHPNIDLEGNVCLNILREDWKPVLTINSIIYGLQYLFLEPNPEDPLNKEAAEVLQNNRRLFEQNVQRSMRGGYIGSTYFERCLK
UniProt Q9NNW7, whole entry, looked up: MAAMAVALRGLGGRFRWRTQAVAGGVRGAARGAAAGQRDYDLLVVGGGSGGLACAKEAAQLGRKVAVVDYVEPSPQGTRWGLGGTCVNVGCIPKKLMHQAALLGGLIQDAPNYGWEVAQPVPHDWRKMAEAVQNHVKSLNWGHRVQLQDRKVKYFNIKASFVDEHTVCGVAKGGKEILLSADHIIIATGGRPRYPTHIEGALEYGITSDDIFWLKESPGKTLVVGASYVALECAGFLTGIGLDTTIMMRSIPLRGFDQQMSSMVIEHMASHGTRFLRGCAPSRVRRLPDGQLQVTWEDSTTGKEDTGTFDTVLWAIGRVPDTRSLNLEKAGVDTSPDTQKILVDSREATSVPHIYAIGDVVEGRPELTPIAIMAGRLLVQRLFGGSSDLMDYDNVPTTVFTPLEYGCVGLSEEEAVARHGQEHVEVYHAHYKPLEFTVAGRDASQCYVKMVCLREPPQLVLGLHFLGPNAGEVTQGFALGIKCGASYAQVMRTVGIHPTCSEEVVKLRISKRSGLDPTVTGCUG
UniProt P22314: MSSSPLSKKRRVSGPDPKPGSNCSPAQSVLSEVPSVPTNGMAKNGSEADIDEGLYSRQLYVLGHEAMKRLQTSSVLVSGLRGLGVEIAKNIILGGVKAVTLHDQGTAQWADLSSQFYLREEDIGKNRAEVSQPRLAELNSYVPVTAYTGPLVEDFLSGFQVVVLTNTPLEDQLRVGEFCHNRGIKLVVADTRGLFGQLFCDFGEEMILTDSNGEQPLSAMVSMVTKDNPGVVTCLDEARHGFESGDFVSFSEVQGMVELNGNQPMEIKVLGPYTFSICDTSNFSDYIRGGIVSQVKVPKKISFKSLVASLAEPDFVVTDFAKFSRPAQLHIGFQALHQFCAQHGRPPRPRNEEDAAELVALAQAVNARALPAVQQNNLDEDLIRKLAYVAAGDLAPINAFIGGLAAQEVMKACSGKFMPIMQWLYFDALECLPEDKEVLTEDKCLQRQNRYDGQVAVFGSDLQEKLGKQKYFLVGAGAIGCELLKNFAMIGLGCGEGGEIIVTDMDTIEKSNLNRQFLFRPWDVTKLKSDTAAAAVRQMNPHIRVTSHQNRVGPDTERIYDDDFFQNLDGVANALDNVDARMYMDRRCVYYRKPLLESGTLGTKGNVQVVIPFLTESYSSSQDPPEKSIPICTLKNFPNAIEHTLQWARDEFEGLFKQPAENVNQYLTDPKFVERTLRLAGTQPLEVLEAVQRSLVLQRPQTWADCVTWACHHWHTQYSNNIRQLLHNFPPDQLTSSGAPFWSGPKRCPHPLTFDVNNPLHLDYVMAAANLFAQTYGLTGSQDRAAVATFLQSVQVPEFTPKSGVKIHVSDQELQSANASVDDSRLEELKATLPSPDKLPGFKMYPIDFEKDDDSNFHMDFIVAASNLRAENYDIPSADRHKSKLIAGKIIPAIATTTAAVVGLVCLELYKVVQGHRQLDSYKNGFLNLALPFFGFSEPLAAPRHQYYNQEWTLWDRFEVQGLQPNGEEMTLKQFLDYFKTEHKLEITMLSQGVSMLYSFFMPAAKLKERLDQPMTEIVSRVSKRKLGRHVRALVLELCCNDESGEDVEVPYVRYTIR
UniProt P29597: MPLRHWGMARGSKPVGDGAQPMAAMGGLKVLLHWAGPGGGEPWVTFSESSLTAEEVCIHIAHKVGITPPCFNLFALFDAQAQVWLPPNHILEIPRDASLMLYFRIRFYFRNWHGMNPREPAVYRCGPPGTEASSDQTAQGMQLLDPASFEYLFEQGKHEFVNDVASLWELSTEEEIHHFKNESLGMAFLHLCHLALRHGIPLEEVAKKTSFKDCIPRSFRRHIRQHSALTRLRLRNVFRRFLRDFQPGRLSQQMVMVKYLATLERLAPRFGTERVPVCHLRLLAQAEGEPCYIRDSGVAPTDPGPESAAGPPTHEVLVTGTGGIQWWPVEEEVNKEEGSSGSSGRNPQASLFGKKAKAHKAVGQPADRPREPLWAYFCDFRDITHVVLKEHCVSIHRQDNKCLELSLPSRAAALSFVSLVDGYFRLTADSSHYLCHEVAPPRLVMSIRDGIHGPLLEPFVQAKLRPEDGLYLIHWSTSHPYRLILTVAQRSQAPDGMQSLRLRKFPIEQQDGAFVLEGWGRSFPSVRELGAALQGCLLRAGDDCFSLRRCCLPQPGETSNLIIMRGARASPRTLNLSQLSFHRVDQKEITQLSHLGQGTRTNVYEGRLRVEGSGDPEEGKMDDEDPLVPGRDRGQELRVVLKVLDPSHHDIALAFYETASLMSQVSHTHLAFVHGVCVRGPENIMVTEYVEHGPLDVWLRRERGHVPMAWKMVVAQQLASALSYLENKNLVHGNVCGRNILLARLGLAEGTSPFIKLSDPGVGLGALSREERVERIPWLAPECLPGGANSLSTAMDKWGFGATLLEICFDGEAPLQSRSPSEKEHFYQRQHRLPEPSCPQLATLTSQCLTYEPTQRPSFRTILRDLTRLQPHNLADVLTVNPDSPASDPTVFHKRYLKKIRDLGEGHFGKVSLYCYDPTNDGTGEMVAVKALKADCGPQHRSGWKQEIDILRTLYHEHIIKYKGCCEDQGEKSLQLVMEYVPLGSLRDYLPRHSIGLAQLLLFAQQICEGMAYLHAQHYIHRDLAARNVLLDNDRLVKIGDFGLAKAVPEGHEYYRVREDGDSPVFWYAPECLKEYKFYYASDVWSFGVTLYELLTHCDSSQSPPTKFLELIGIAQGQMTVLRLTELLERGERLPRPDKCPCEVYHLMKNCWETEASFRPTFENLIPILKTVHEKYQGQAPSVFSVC
UniProt P26368, whole entry, looked up: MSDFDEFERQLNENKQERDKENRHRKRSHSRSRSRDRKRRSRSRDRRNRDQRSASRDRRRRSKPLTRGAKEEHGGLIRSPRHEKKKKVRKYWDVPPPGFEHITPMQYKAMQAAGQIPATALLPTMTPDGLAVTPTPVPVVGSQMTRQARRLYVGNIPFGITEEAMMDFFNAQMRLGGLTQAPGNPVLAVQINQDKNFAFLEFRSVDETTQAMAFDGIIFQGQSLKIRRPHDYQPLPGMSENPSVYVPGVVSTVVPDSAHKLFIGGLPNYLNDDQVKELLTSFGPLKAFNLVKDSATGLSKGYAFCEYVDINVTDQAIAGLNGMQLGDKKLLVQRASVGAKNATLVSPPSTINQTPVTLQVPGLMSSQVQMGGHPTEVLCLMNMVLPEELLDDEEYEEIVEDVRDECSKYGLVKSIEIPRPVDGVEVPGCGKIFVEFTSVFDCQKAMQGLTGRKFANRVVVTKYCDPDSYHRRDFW
UniProt Q9H3M7: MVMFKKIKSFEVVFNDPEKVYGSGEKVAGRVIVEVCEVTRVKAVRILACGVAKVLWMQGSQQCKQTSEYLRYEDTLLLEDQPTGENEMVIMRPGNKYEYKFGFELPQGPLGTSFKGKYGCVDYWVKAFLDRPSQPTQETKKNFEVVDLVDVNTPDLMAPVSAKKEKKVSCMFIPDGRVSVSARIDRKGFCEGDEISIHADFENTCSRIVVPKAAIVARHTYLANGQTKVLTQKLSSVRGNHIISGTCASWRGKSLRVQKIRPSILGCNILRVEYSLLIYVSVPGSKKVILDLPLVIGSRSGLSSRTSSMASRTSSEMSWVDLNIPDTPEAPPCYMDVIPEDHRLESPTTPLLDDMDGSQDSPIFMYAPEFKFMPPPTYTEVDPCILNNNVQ
UniProt Q9NRR5, whole entry: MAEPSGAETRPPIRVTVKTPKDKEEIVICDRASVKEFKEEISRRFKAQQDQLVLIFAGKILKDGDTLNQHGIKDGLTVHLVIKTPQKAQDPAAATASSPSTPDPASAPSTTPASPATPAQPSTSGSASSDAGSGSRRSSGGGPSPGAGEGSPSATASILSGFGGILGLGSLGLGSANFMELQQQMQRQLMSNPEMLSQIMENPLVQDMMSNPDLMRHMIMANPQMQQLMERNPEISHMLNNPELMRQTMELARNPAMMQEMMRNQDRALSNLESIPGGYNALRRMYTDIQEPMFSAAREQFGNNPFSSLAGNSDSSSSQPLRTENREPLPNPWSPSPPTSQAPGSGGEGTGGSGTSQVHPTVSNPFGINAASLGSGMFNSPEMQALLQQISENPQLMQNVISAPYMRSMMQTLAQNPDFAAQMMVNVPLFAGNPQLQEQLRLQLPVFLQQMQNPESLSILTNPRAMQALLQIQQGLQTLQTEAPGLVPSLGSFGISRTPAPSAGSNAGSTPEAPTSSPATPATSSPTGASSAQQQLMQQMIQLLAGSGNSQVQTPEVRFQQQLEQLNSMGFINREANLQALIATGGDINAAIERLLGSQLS
UniProt Q9BZF9: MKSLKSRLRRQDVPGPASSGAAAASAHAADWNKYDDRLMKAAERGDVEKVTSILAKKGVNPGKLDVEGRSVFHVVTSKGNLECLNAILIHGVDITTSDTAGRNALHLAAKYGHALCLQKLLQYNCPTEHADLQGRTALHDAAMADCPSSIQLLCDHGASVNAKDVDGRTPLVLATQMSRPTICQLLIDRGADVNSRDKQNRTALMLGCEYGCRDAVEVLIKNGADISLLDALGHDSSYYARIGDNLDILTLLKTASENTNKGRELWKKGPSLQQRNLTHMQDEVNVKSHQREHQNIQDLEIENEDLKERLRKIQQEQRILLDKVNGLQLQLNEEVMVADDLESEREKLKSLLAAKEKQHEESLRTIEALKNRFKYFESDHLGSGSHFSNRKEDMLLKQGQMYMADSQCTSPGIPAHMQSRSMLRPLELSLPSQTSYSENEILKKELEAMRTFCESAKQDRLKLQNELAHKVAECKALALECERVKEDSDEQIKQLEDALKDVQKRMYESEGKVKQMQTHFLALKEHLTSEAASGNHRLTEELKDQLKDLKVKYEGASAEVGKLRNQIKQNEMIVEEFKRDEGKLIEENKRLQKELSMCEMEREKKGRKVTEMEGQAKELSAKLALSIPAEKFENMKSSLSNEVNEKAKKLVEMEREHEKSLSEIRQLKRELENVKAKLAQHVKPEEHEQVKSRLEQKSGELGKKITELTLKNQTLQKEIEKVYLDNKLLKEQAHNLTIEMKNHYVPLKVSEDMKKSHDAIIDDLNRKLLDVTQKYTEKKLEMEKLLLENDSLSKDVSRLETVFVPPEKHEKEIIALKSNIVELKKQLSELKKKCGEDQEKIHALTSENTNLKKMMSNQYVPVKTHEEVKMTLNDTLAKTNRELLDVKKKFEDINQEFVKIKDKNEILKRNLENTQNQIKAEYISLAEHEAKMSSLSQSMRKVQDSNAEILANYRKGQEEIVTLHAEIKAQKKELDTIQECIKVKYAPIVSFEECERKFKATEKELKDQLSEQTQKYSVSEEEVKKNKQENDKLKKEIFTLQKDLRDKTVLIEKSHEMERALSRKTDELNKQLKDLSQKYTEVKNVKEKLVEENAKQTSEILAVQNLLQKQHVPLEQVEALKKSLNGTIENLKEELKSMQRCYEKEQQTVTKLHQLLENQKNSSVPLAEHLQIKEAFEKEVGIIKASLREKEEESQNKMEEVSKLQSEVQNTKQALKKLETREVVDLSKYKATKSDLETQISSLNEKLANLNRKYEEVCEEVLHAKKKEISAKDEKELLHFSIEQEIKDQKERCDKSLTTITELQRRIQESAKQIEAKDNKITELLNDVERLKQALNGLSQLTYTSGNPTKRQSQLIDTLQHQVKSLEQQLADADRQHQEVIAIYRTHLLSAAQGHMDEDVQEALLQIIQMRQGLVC
UniProt Q8TBC4: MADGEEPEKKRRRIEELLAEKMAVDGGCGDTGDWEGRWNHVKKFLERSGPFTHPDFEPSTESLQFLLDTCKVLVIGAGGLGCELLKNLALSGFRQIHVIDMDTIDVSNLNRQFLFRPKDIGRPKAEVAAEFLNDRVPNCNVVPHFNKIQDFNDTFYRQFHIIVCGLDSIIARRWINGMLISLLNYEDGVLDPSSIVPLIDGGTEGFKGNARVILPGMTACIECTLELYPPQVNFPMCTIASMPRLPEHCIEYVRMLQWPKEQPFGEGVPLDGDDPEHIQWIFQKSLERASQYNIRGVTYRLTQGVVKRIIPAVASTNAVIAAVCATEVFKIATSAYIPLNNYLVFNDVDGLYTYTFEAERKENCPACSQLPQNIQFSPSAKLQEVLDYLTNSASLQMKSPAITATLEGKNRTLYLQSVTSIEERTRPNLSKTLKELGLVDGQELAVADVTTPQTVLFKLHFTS
UniProt Q13404: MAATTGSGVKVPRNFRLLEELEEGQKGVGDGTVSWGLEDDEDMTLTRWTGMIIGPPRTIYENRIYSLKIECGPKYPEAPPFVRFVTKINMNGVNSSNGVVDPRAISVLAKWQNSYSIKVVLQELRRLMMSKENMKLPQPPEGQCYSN
UniProt P83876: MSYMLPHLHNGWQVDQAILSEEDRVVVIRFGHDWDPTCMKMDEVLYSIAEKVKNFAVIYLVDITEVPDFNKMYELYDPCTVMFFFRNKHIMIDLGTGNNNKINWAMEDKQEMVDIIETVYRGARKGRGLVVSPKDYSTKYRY

Compound: CC1Cc2ccccc2N1C(=O)C1CCCN(C1)C(=O)CCl (mixture of isomers) [TRIM25 ligand 11 (diastereomer mixture)]
Assay: probe-labelled cysteine peptide fold change vs DMSO (competition) (log2 fold change); higher = less target engagement (more negative = stronger competition)
Conditions: THP-1, incubation time: 4 h
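Note: competitive chemoproteomic profiling in live THP-1 cells with an iodoacetamide desthiobiotin (IA-DTB) probe, comparing probe-labelled peptide intensities in compound-treated cells against DMSO-treated controls.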

Target	probe-labelled cysteine peptide fold change (10 µM)	probe-labelled cysteine peptide fold change (50 µM)
UBE3A_Q05086_108_GAPNNSCSEIK (UniProt Q05086)	-0.00611	-0.169
UBE3A_Q05086_843_NGPDTERLPTSHTCFNVLLLPEYSSK (UniProt Q05086)	0.104	0.128
UBLCP1_Q8WVY7_154_SCAETGVELMR (UniProt Q8WVY7)	0.334	-0.043
UBR4_Q5T4S7_1970_EDYLAVCGLK (UniProt Q5T4S7)	0.0869	0.0514
UBE2M_P61081_95+111_CETMVYHPNIDLEGNVCLNILR (UniProt P61081)	0.211	-0.0298
UBE2I_P63279_43_NPDGTMNLMNWECAIPGKK (UniProt P63279)	-0.244	-0.211
TXNRD2_Q9NNW7_279_GCAPSR (UniProt Q9NNW7)	0.829	0.386
UBA6_A0AVT1_721_ALQLLHCFPLDIR	-0.121	0.0812
UBA1_P22314_1039+1040_ALVLELCCNDESGEDVEVPYVR (UniProt P22314)	0.102	0.0371
TYK2_P29597_1140_CPCEVYHLMK (UniProt P29597)	-0.0795	-0.214
UBR4_Q5T4S7_4839+4841_QMEELIEEPGLTCCICR (UniProt Q5T4S7)	0.337	0.209
UBR4_Q5T4S7_4146_QAACTIVEALATIPSR (UniProt Q5T4S7)	0.0371	-0.0346
UBR4_Q5T4S7_2618_QLEGDCCSFITQLVNHFWK (UniProt Q5T4S7)	0.0953	0.131
UBAP2_Q5T6F2_78_NQDECIVALHDCNGDVNK (UniProt Q5T6F2)	-0.149	-0.0293
UBR4_Q5T4S7_2554_AVQCLNTSSK (UniProt Q5T4S7)	-0.134	-0.237
UBA1_P22314_481_YFLVGAGAIGCELLK (UniProt P22314)	0.0132	0.0456
UBR4_Q5T4S7_1724_EDGSCLALVK (UniProt Q5T4S7)	0.131	0.0997
U2AF2_P26368_464_YCDPDSYHR (UniProt P26368)	-0.00882	0.0989
TXNIP_Q9H3M7_36_VIVEVCEVTR (UniProt Q9H3M7)	0.136	0.375
TXNL1_O43396_149_AGCECLNESDEHGFDNCLRK (UniProt O43396)	-0.0286	-0.106
UBE2M_P61081_95_CETMVYHPNIDLEGNVCLNILR (UniProt P61081)	-0.092	-0.0144
UBQLN4_Q9NRR5_29_DKEEIVICDR (UniProt Q9NRR5)	-0.0549	-0.248

20 neighbouring entries already listed, quoted:
Target	probe-labelled cysteine peptide fold change (10 µM)	probe-labelled cysteine peptide fold change (50 µM)
UBLCP1_Q8WVY7_154_SCAETGVELMR (UniProt Q8WVY7)	0.334	-0.043
UBR4_Q5T4S7_1970_EDYLAVCGLK (UniProt Q5T4S7)	0.0869	0.0514
UBE2M_P61081_95+111_CETMVYHPNIDLEGNVCLNILR (UniProt P61081)	0.211	-0.0298
UBE2I_P63279_43_NPDGTMNLMNWECAIPGKK (UniProt P63279)	-0.244	-0.211
TXNRD2_Q9NNW7_279_GCAPSR (UniProt Q9NNW7)	0.829	0.386
UBA6_A0AVT1_721_ALQLLHCFPLDIR	-0.121	0.0812
UBA1_P22314_1039+1040_ALVLELCCNDESGEDVEVPYVR (UniProt P22314)	0.102	0.0371
TYK2_P29597_1140_CPCEVYHLMK (UniProt P29597)	-0.0795	-0.214
UBR4_Q5T4S7_4839+4841_QMEELIEEPGLTCCICR (UniProt Q5T4S7)	0.337	0.209
UBR4_Q5T4S7_4146_QAACTIVEALATIPSR (UniProt Q5T4S7)	0.0371	-0.0346
UBR4_Q5T4S7_2618_QLEGDCCSFITQLVNHFWK (UniProt Q5T4S7)	0.0953	0.131
UBAP2_Q5T6F2_78_NQDECIVALHDCNGDVNK (UniProt Q5T6F2)	-0.149	-0.0293
UBR4_Q5T4S7_2554_AVQCLNTSSK (UniProt Q5T4S7)	-0.134	-0.237
UBA1_P22314_481_YFLVGAGAIGCELLK (UniProt P22314)	0.0132	0.0456
UBR4_Q5T4S7_1724_EDGSCLALVK (UniProt Q5T4S7)	0.131	0.0997
U2AF2_P26368_464_YCDPDSYHR (UniProt P26368)	-0.00882	0.0989
TXNIP_Q9H3M7_36_VIVEVCEVTR (UniProt Q9H3M7)	0.136	0.375
TXNL1_O43396_149_AGCECLNESDEHGFDNCLRK (UniProt O43396)	-0.0286	-0.106
UBE2M_P61081_95_CETMVYHPNIDLEGNVCLNILR (UniProt P61081)	-0.092	-0.0144
UBQLN4_Q9NRR5_29_DKEEIVICDR (UniProt Q9NRR5)	-0.0549	-0.248

Remaining list, next part:

Target	probe-labelled cysteine peptide fold change (10 µM)	probe-labelled cysteine peptide fold change (50 µM)
UBR4_Q5T4S7_4890_KQQGYSTVSHFNIVHYDCHLAAVR (UniProt Q5T4S7)	-0.0918	-0.0996
UBE2I_P63279_75_CKFEPPLFHPNVYPSGTVCLSILEEDK (UniProt P63279)	-0.00777	0.167
TYK2_P29597_736_NLVHGNVCGR (UniProt P29597)	-0.0301	0.042
UBA2_Q9UBT2_185_NTPSEPIHCIVWAK (UniProt Q9UBT2)	-0.203	-0.0808
UBA2_Q9UBT2_161_KGVTECYECHPKPTQR (UniProt Q9UBT2)	-0.0473	-0.0506
UBE4B_O95155_534_ECSLDSDYFK (UniProt O95155)	0.0295	0.207
UBE2E1_P51965_67_ELADITLDPPPNCSAGPK (UniProt P51965)	-0.0755	0.0668
UACA_Q9BZF9_481_ALALECER (UniProt Q9BZF9)	-0.0367	0.0956
UBR4_Q5T4S7_1900_VAMCVLSSPHGR (UniProt Q5T4S7)	0.121	0.27
TYSND1_Q2T9J0_48_SPGLVLCHGGIFVPFLR (UniProt Q2T9J0)	-0.0295	0.022
TXNIP_Q9H3M7_49_ILACGVAK (UniProt Q9H3M7)	0.365	0.565
UBE2Z_Q9H832_286_SFLEYYDFYEVACK (UniProt Q9H832)	-0.0399	-0.211
UBAC1_Q9BSL1_19_LHICASDGAEWLEEATEDTSVEK (UniProt Q9BSL1)	-0.201	-0.213
UBR4_Q5T4S7_1662_LCTFTITQK (UniProt Q5T4S7)	-0.119	-0.0801
UBE4A_Q14139_175_HIFCYLYSCFQR (UniProt Q14139)	0.141	0.127
UBA3_Q8TBC4_82_VLVIGAGGLGCELLK (UniProt Q8TBC4)	-0.221	-0.235
TYW3_Q6IPR3_109_FEPFVLHVQCR (UniProt Q6IPR3)	0.0625	0.0745
TXNL1_O43396_64_YPQAVFLEVDVHQCQGTAATNNISATPTFLFFR (UniProt O43396)	0.218	-0.00695
UBR5_O95071_2094_NCLEVLPTK (UniProt O95071)	-0.246	0.0107
UBE2V1_Q13404_71_IECGPK (UniProt Q13404)	-0.388	-0.214
TXNL4A_P83876_38_FGHDWDPTCMK (UniProt P83876)	0.189	0.122
UBL5_Q9BZL1_6_IEVVCNDR (UniProt Q9BZL1)	-0.0789	0.129

Target	probe-labelled cysteine peptide fold change (10 µM)	probe-labelled cysteine peptide fold change (50 µM)
UBR2_Q8IWV8_1332_VHPNEEDPRVPIMCWGSCAYTIQSIER (UniProt Q8IWV8)	-0.326	-0.616
UBAP2L_Q14157_75_NQDECVIALHDCNGDVNR (UniProt Q14157)	-0.188	-0.237
UBR4_Q5T4S7_4916_CNGLLPVWGPHVPESAFATCLAR (UniProt Q5T4S7)	0.236	0.0857
UBE2K_P61086_170_KIENLCAMGFDR (UniProt P61086)	-0.0455	0.0315
UBE2V1_Q13404_144_LPQPPEGQCYSN (UniProt Q13404)	-0.0699	-0.213
UBA2_Q9UBT2_158+161_GVTECYECHPKPTQR (UniProt Q9UBT2)	0.139	-0.0223
UBASH3B_Q8TF42_367_RPYEDQGLGETTPLTIICQPMQPLR (UniProt Q8TF42)	-0.187	-0.37
UAP1_Q16222_251_GIWSIHVYCVDNILVK (UniProt Q16222)	-0.469	-0.194
UBL4A_P11441_13_ECSLQVPEDELVSTLK (UniProt P11441)	-0.132	0.132
UBAP1_Q9NZ09_161_ADFNLADFECEEDPFDNLELK (UniProt Q9NZ09)	-0.087	-0.249
UBE2O_Q9C0C9_375_NCAQGEGSMAK (UniProt Q9C0C9)	-0.114	-0.196
UBR4_Q5T4S7_2619_QLEGDCCSFITQLVNHFWK (UniProt Q5T4S7)	-0.0252	0.0219
UACA_Q9BZF9_83_GNLECLNAILIHGVDITTSDTAGR (UniProt Q9BZF9)	-0.271	-0.115
UBE2R2_Q712K3_93_MWHPNIYENGDVCISILHPPVDDPQSGELPSER (UniProt Q712K3)	-0.0673	-0.15
UBE3A_Q05086_843_LPTSHTCFNVLLLPEYSSK (UniProt Q05086)	-0.0344	-0.0828
UBA7_P41226_552_CTHYLK (UniProt P41226)	0.0123	0.0641
UBA6_A0AVT1_17_MEGSEPVAAHQGEEASCSSWGTGSTNK	-0.163	-0.534
UBE2I_P63279_75+93_CKFEPPLFHPNVYPSGTVCLSILEEDK (UniProt P63279)	-0.257	-0.253
UBA3_Q8TBC4_139_AEVAAEFLNDRVPNCNVVPHFNK (UniProt Q8TBC4)	0.0621	0.0914
UBR5_O95071_1382+1386_LDCFTHCLIVK (UniProt O95071)	0.374	0.564
UBR1_Q8IWV7_1200_IHVDLFDLESGEYLCPLCK (UniProt Q8IWV7)	0.101	0.0329
UBE3A_Q05086_480_FSFMTCPFILNAVTK (UniProt Q05086)	0.0709	-0.0129
